Reference: paper PMC4658663
No constants are given. Whether binding was seen depends on the method and setting. Binding seen in cells or lysates may run through a third protein. These calls come from enrichment with a bait or labelling near it, and not all partners need be listed. For part of these data: No binding means not detected with the bait. For part of these data: Sequences can lack the tags named with a protein. Values belong to the molecule of their own block, whether it stands above or below them.

Protein sequences, listed by entry. Tags and fused reporters are not part of them. Lines headed by an entry give the natural chain unless they say otherwise; changes in a name come on top.
UniProt P32745: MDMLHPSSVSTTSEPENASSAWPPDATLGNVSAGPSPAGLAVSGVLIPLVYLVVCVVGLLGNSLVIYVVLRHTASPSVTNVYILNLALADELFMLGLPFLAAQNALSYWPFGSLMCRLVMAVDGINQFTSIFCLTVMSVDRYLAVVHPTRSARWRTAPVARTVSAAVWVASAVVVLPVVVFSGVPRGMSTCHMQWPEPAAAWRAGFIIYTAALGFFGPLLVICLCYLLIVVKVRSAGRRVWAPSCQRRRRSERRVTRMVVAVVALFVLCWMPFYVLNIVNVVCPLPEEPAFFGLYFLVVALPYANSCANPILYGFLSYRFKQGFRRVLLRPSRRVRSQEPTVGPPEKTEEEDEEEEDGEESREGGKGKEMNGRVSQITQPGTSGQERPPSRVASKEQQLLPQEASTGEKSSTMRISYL
UniProt Q9NS75: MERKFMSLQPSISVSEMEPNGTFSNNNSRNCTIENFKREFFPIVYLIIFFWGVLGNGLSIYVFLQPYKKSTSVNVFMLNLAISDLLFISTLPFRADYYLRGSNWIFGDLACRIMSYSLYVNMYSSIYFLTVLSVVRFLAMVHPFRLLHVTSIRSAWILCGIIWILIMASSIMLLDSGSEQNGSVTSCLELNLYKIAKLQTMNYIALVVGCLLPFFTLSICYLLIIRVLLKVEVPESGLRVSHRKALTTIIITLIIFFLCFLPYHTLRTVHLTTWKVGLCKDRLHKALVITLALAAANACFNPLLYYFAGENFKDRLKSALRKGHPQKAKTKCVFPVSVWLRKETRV
UniProt P28223: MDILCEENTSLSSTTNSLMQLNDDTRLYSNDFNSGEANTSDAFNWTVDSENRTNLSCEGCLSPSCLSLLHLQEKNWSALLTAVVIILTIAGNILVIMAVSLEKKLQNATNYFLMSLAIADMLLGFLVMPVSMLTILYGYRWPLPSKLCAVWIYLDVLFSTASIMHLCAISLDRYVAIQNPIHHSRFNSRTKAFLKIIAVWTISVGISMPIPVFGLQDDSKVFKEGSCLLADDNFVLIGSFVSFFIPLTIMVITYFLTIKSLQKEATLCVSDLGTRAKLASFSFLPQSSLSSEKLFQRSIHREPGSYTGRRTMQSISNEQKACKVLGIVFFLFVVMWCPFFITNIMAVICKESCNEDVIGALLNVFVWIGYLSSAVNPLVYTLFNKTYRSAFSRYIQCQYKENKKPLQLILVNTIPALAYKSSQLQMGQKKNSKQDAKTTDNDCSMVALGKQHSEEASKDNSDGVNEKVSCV
UniProt O95136: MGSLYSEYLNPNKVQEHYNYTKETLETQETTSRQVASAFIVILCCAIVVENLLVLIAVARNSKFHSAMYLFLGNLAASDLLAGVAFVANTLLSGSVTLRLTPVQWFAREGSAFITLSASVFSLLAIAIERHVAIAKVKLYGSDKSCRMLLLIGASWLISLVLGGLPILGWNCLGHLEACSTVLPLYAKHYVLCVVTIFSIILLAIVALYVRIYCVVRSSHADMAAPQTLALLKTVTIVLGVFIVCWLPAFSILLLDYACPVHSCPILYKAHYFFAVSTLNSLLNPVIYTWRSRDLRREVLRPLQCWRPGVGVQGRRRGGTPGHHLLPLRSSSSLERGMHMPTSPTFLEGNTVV
UniProt Q9H244: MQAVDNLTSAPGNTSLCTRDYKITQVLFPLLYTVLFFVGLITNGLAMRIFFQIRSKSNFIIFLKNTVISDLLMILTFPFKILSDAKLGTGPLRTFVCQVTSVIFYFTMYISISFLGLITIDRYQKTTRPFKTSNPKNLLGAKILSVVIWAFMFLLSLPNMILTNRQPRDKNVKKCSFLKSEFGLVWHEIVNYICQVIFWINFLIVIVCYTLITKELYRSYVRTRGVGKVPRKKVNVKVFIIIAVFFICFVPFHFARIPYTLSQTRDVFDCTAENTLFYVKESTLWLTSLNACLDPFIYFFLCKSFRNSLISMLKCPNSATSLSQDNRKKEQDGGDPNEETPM
UniProt P18089: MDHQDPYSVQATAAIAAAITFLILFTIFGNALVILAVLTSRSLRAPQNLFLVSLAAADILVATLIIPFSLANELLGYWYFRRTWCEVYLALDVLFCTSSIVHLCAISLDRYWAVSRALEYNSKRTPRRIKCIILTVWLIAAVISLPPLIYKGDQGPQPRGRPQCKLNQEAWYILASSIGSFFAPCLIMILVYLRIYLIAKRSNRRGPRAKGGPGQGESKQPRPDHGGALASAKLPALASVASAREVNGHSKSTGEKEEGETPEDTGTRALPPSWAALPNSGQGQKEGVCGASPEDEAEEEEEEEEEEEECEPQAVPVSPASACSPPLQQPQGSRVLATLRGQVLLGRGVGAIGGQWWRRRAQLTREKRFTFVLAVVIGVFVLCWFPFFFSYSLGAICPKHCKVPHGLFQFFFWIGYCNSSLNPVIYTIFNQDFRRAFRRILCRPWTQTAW
UniProt Q13425: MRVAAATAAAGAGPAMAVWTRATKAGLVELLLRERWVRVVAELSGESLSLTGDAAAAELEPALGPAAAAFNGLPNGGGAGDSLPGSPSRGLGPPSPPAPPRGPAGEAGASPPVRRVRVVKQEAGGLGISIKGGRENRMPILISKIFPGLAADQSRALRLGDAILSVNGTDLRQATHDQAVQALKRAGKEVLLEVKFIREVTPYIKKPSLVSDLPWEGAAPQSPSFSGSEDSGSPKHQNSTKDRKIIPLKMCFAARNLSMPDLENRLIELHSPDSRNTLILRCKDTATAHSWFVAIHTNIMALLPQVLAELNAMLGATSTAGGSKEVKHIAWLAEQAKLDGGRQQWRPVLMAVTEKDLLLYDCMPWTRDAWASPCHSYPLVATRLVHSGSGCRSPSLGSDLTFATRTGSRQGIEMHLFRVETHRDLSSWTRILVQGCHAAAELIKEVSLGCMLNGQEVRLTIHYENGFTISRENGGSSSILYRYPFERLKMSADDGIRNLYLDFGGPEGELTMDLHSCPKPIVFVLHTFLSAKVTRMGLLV
UniProt P46939: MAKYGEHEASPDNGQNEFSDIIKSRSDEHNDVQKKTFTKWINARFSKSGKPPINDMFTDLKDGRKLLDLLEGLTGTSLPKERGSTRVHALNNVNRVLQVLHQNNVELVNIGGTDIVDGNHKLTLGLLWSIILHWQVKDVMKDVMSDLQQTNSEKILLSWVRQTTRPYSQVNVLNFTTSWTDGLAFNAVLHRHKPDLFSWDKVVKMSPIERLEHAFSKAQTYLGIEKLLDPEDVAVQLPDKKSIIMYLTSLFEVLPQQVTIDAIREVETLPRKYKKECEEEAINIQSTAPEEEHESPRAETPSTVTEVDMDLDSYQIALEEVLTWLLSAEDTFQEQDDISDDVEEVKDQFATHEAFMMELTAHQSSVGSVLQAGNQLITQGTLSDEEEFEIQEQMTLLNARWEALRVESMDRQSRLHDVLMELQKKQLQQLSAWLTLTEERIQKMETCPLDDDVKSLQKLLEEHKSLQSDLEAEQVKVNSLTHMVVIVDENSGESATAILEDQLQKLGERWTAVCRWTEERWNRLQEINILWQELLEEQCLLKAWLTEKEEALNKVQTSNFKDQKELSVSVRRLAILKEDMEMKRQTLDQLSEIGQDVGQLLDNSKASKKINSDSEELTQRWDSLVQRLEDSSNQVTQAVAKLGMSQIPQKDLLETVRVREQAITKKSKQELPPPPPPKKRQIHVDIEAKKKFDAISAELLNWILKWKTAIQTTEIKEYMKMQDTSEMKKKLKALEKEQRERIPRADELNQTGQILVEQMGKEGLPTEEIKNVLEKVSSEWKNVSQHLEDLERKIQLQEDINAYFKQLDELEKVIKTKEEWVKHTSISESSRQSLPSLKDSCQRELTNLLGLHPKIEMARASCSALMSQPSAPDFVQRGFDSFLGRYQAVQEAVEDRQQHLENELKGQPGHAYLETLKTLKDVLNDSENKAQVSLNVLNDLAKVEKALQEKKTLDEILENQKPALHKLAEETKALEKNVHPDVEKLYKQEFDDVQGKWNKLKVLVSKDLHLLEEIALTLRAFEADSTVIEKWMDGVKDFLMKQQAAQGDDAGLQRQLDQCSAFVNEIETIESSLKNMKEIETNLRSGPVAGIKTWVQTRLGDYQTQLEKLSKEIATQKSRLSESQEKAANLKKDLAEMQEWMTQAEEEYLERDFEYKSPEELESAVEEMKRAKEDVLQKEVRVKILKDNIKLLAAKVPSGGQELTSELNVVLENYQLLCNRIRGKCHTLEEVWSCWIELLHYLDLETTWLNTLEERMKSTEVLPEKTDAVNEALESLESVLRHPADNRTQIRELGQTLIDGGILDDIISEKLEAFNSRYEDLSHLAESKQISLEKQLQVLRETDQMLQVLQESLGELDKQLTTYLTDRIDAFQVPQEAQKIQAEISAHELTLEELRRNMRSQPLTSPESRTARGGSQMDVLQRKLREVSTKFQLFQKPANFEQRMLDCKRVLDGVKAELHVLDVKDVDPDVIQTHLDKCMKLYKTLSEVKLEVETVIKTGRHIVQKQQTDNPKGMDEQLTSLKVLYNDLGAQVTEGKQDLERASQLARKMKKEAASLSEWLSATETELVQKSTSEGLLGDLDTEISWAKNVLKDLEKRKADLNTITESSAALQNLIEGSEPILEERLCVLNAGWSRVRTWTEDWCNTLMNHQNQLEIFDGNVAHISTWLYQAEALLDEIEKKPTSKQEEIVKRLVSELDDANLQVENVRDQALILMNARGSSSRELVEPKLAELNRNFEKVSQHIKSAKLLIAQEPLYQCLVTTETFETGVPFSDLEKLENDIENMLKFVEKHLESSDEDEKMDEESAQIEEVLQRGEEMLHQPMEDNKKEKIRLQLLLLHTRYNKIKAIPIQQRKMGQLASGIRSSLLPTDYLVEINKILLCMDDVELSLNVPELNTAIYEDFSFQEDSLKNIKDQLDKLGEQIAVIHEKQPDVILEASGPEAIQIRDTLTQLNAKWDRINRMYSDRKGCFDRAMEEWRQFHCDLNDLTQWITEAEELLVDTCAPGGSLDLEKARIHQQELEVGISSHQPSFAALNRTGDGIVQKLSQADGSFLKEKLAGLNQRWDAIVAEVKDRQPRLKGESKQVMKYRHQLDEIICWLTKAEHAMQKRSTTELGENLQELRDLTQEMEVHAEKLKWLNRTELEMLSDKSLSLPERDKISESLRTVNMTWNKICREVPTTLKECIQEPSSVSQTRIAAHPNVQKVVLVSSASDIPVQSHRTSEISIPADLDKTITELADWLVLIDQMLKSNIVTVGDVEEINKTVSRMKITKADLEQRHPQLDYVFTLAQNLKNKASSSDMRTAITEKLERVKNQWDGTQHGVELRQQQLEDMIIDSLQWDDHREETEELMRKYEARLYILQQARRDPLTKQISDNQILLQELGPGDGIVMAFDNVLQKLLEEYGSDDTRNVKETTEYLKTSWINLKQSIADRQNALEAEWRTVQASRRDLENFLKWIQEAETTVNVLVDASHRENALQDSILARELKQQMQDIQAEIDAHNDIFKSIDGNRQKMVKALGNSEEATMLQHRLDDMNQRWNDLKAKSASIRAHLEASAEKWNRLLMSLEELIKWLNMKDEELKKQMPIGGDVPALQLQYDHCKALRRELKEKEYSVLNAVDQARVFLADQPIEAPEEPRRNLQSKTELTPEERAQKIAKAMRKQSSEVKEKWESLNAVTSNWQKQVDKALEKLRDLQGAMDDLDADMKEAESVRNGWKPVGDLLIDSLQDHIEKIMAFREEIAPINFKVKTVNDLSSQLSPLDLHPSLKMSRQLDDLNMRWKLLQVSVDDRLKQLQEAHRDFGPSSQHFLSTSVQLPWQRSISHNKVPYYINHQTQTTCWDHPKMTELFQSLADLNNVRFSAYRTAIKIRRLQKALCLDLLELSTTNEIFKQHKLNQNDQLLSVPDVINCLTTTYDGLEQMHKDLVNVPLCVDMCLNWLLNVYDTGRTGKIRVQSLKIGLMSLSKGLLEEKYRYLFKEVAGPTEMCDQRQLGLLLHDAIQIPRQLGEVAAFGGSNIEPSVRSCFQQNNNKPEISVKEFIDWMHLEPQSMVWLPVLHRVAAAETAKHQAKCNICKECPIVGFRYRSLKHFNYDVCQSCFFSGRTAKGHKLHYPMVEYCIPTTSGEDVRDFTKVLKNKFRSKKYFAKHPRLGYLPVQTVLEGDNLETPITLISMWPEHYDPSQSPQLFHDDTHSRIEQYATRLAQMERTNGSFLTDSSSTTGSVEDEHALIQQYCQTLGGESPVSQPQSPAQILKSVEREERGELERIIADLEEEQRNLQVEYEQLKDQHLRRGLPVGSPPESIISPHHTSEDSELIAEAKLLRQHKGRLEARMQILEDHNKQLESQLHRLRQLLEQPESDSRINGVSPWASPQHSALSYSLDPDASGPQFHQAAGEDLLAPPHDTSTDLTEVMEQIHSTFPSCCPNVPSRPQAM

Tests used:
Assay in all cases: affinity purification with mass spectrometry; TAP/MS; TAP-tagged bait transfected alone (or with empty vector) in HEK293T cells; TEV cleavage omitted; eluates on Velos-Pro Orbitrap Elite; protein FDR 2.5%
[1] = target: SSTR3 (somatostatin receptor 3), TAP-tagged (human) (UniProt P32745)
[2] = target: CYSLTR2 (cysteinyl leukotriene 2 receptor), TAP-tagged (human) (UniProt Q9NS75)
[3] = target: SSTR2 (somatostatin receptor 2), TAP-tagged (human) (UniProt P30874)
[4] = target: HTR2A (5-hydroxytryptamine type 2A receptor), TAP-tagged (human) (UniProt P28223)
[5] = target: CXCR2 (chemokine receptor), TAP-tagged (human) (UniProt P25025)
[6] = target: S1PR2 (sphingosine-1-phosphate type 2 receptor), TAP-tagged (human) (UniProt O95136)
[7] = target: LPAR2 (lysophosphatidic acid type 2 receptor), TAP-tagged (human) (UniProt Q9HBW0)
[8] = target: TAP–ADRA1D (human) (UniProt P25100)
[9] = target: P2RY12 (P2Y purinergic receptor 12), TAP-tagged (human) (UniProt Q9H244)
[10] = target: HTR2C (5-hydroxytryptamine type 2C receptor), TAP-tagged (human) (UniProt P28335)
[11] = target: ADRA2B (α2B-adrenergic receptor), TAP-tagged (human) (UniProt P18089)
[12] = target: T1, MAS1 (proto-oncogene MAS type I), TAP-tagged (human) (UniProt P04201)
T1 sequence: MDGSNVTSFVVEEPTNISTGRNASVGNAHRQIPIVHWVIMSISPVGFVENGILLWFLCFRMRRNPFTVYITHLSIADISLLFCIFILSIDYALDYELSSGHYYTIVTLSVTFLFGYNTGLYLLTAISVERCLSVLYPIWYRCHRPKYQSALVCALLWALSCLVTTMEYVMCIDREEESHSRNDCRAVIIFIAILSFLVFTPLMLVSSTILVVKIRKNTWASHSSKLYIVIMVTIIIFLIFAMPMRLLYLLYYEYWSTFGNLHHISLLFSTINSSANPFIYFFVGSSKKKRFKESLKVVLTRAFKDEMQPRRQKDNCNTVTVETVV

[13] = target: T2, GALR1 (galanin type I receptor), TAP-tagged (human) (UniProt P47211)
T2 sequence: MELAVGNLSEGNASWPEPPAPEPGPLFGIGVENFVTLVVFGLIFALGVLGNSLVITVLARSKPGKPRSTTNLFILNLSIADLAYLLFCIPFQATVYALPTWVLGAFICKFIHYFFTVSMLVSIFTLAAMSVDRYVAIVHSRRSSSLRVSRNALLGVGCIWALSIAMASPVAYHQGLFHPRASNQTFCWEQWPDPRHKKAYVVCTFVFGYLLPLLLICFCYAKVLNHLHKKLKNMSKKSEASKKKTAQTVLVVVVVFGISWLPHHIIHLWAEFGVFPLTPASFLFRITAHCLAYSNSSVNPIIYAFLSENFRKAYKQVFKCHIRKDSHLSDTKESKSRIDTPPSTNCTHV

[14] = target: P2RY1 (P2Y purinergic receptor 1), TAP-tagged (human) (UniProt P47900)
[15] = target: CXCR3 (chemokine receptor), TAP-tagged (human) (UniProt P49682)
[16] = target: SSTR1 (somatostatin receptor 1), TAP-tagged (human) (UniProt P30872)

Molecule: dystrophin (DMD) (from UniProt P11532 1-3685)
binding [1]: no binding | binding [2]: no binding | binding [3]: no binding | binding [4]: no binding | binding [5]: no binding | binding [6]: no binding | binding [7]: no binding | binding [8]: binds | binding [9]: no binding | binding [10]: no binding | binding [11]: no binding | binding [12]: no binding | binding [13]: no binding | binding [14]: no binding | binding [15]: no binding | binding [16]: no binding

Molecule: SNTB2 (from UniProt Q13425 1-540)
binding [1]: no binding | binding [2]: no binding | binding [3]: no binding | binding [4]: no binding | binding [5]: no binding | binding [6]: no binding | binding [7]: no binding | binding [8]: binds | binding [9]: no binding | binding [10]: no binding | binding [11]: no binding | binding [12]: no binding | binding [13]: no binding | binding [14]: no binding | binding [15]: no binding | binding [16]: no binding

Molecule: Scribble (SCRIB), endogenous (from UniProt Q14160 1-1655)
binding [1]: no binding | binding [2]: no binding | binding [3]: no binding | binding [4]: no binding | binding [5]: no binding | binding [6]: no binding | binding [7]: no binding | binding [8]: binds | binding [9]: no binding | binding [10]: no binding | binding [11]: no binding | binding [12]: no binding | binding [13]: no binding | binding [14]: no binding | binding [15]: no binding | binding [16]: no binding

B2: SNTB1 (protein, UniProt Q13884 1-538)
chain: MAVAAAAAAAGPAGAGGGRAQRSGLLEVLVRDRWHKVLVNLSEDALVLSSEEGAAAYNGIGTATNGSFCRGAGAGHPGAGGAQPPDSPAGVRTAFTDLPEQVPESISNQKRGVKVLKQELGGLGISIKGGKENKMPILISKIFKGLAADQTQALYVGDAILSVNGADLRDATHDEAVQALKRAGKEVLLEVKYMREATPYVKKGSPVSEIGWETPPPESPRLGGSTSDPPSSQSFSFHRDRKSIPLKMCYVTRSMALADPENRQLEIHSPDAKHTVILRSKDSATAQAWFSAIHSNVNDLLTRVIAEVREQLGKTGIAGSREIRHLGWLAEKVPGESKKQWKPALVVLTEKDLLIYDSMPRRKEAWFSPVHTYPLLATRLVHSGPGKGSPQAGVDLSFATRTGTRQGIETHLFRAETSRDLSHWTRSIVQGCHNSAELIAEISTACTYKNQECRLTIHYENGFSITTEPQEGAFPKTIIQSPYEKLKMSSDDGIRMLYLDFGGKDGEIQLDLHSCPKPIVFIIHSFLSAKITRLGLVA
binding [1]: no binding | binding [2]: no binding | binding [3]: no binding | binding [4]: no binding | binding [5]: no binding | binding [6]: no binding | binding [7]: no binding | binding [8]: binds | binding [9]: no binding | binding [10]: no binding | binding [11]: no binding | binding [12]: no binding | binding [13]: no binding | binding [14]: no binding | binding [15]: no binding | binding [16]: no binding

Next, values leading:

binding [1]: no binding | binding [2]: no binding | binding [3]: no binding | binding [4]: no binding | binding [5]: no binding | binding [6]: no binding | binding [7]: no binding | binding [8]: binds | binding [9]: no binding | binding [10]: no binding | binding [11]: no binding | binding [12]: no binding | binding [13]: no binding | binding [14]: no binding | binding [15]: no binding | binding [16]: no binding
Molecule: utrophin (UTRN) (from UniProt P46939 1-3433)

binding [1]: no binding | binding [2]: no binding | binding [3]: no binding | binding [4]: no binding | binding [5]: no binding | binding [6]: no binding | binding [7]: no binding | binding [8]: binds | binding [9]: no binding | binding [10]: no binding | binding [11]: no binding | binding [12]: no binding | binding [13]: no binding | binding [14]: no binding | binding [15]: no binding | binding [16]: no binding
B1: α-catulin (CTNNAL1) (protein, UniProt Q9UBT7 1-734)
chain: MAASPGPAGVGGAGAVYGSGSSGFALDSGLEIKTRSVEQTLLPLVSQITTLINHKDNTKKSDKTLQAIQRVGQAVNLAVGRFVKVGEAIANENWDLKEEINIACIEAKQAGETIAALTDITNLNHLESDGQITIFTDKTGVIKAARLLLSSVTKVLLLADRVVIKQIITSRNKVLATMERLEKVNSFQEFVQIFSQFGNEMVEFAHLSGDRQNDLKDEKKKAKMAAARAVLEKCTMMLLTASKTCLRHPNCESAHKNKEGVFDRMKVALDKVIEIVTDCKPNGETDISSISIFTGIKEFKMNIEALRENLYFQSKENLSVTLEVILERMEDFTDSAYTSHEHRERILELSTQARMELQQLISVWIQAQSKKTKSIAEELELSILKISHSLNELKKELHSTATQLAADLLKYHADHVVLKALKLTGVEGNLEALAEYACKLSEQKEQLVETCRLLRHISGTEPLEITCIHAEETFQVTGQQIISAAETLTLHPSSKIAKENLDVFCEAWESQISDMSTLLREINDVFEGRRGEKYGYLSLPKPMKNNANLKSLKPDKPDSEEQAKIAKLGLKLGLLTSDADCEIEKWEDQENEIVQYGRNMSSMAYSLYLFTRGEGPLKTSQDLIHQLEVFAAEGLKLTSSVQAFSKQLKDDDKLMLLLEINKLIPLCHQLQTVTKTSLQNKVFLKVDKCITKTRSMMALLVQLLSLCYKLLKKLQMENNGWVSVTNKDTMDSKT
